Test results taken from the supplement of paper PMC7646827.
Single values are uncertain, as repeats are few or missing.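 All cells are established human bladder cancer lines, one of them grown from a patient-derived xenograft. Viability was read by a luminescent ATP assay as percent inhibition versus vehicle over a seven-point dilution series; the paper calls scores above 59 very active, 30–59 active, 21–29 semi-active, 9–20 low active and below 9 inactive.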

Columns and labels:
Assay in all cases: drug sensitivity score DSS3 (score 0-100); higher = more sensitive; extreme values may be limits of the assay
Conditions in all cases: culture: 3D, ultra-low attachment; treatment time: 5 days
SW780 = tested on: SW780
UM-UC-17 = tested on: UM-UC-17
T-24 = tested on: T-24
BC8149 = tested on: BC8149
UM-UC-18 = tested on: UM-UC-18
UM-UC-5 = tested on: UM-UC-5
UM-UC-9 = tested on: UM-UC-9
UM-UC-1 = tested on: UM-UC-1
J82 = tested on: J82
SCaBER = tested on: SCaBER
UM-UC-6 = tested on: UM-UC-6
UM-UC-14 = tested on: UM-UC-14
TCCSUP = tested on: TCCSUP
UM-UC-15 = tested on: UM-UC-15
5637 = tested on: 5637
UM-UC-12 = tested on: UM-UC-12

SMILES	drug sensitivity score DSS3 (SW780)	drug sensitivity score DSS3 (UM-UC-17)	drug sensitivity score DSS3 (T-24)	drug sensitivity score DSS3 (BC8149)	drug sensitivity score DSS3 (UM-UC-18)	drug sensitivity score DSS3 (UM-UC-5)	drug sensitivity score DSS3 (UM-UC-9)	drug sensitivity score DSS3 (UM-UC-1)	drug sensitivity score DSS3 (J82)	drug sensitivity score DSS3 (SCaBER)	drug sensitivity score DSS3 (UM-UC-6)	drug sensitivity score DSS3 (UM-UC-14)	drug sensitivity score DSS3 (TCCSUP)	drug sensitivity score DSS3 (UM-UC-15)	drug sensitivity score DSS3 5637	drug sensitivity score DSS3 (UM-UC-12)
CC1(COc2ccc3c(c2)ncn3-c2ccc3cccc(N4CCC(N)CC4)c3n2)COC1 (max dose 10000 nM)	0	0	1.5	0.144	7.3	0	0	0.0957	0	1.14	0.437	0.305	0	0	0.0883	9.09
CC1=C(C(=O)Nc2ccc3[nH]ncc3c2)C(c2ccc(F)cc2)NC(=O)N1 (stereo unspecified) (max dose 10000 nM)	0	0	0	0	0	0	0	0	0	0	0	0	0	0	0	0
CN1CCN(c2cccc(Nc3nc4c(-c5ccc(S(C)(=O)=O)cc5)cccn4n3)c2)CC1 (max dose 10000 nM)	0	0	0	6.51	0	0	0	0	0	0	0	0	0	0	3.75	0
COCC(=O)NC/C=C/c1ccc2ncnc(Nc3ccc(Oc4ccc(C)nc4)c(C)c3)c2c1 (max dose 10000 nM)	0	0	0	0	0.0488	0	0	0.813	0	0	0	0	0.0734	0	0	0
COc1cc(OC)cc(-c2cc3cnc(N)nc3nc2NC(=O)NC(C)(C)C)c1 (max dose 10000 nM)	0	0	0	0	0	0	0	0	0	0.657	0	0.000737	2.15	0	0	0
C[C@@H](N)[C@H]1CC[C@H](C(=O)Nc2ccncc2)CC1 (max dose 10000 nM)	0	0	0	0	0	0	0	0	0	0	0	0	0	0	0	0
C[C@@H](Oc1cc(-c2cnn(C3CCNCC3)c2)cnc1N)c1c(Cl)ccc(F)c1Cl (max dose 10000 nM)	1.07	7.06	9.21	5.77	21.2	0	0.537	5.57	4.11	1.57	8.52	14.8	11.7	0	10.3	8.78
C[C@@H]1CCN(C(=O)CC#N)C[C@@H]1N(C)c1ncnc2[nH]ccc12 (max dose 10000 nM)	0	0	0	0	0	0	0	0	0	0	0	0	0	0	0	0
Cc1[nH]c(/C=C2\C(=O)Nc3ccc(S(=O)(=O)Cc4c(Cl)cccc4Cl)cc32)c(C)c1C(=O)N1CCC[C@@H]1CN1CCCC1 (max dose 10000 nM)	0	0.708	4.88	13.8	3.26	3.45	0	0.0401	1.85	0	0.0164	1.01	10.2	0	1.88	2.93
Cc1cc(F)c(Nc2ncnc3cc(OCc4ccccc4)ccc23)cc1O (max dose 10000 nM)	1.12	0	0.292	0	0	0	0	0.000172	0	0	0	0.0263	0	0	0	0
O=c1cc(-c2cccc3c2Sc2ccccc2S3)oc(N2CCOCC2)c1 (max dose 10000 nM)	0	0.264	0.0676	0.253	0.696	0	0	0	0	0.109	0.258	0.0618	0.881	0	0.361	0

Quoted from the listing:
`CC1=C(C(=O)Nc2ccc3[nH]ncc3c2)C(c2ccc(F)cc2)NC(=O)N1` (stereo unspecified) (max dose 10000 nM) | drug sensitivity score DSS3 (UM-UC-14): 0
`COCC(=O)NC/C=C/c1ccc2ncnc(Nc3ccc(Oc4ccc(C)nc4)c(C)c3)c2c1` (max dose 10000 nM) | drug sensitivity score DSS3 (UM-UC-17): 0
